Measurements reported in PubChem BioAssay AID504804 (Drosophila RNAi Screening Center, 2011)

Purpose: 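Knock-downs shielding fly cells from apoptosis caused by DNA damage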 (primary screen)
System: Drosophila Kc cells
Knock-down reagent: long dsRNA against Drosophila genes, 0.5 µg dsRNA per well
Time to read-out: 96 h (48 h knock-down, then 48 h drug)
Challenge: doxorubicin 5 µg/ml for 48 h, added 48 h after dsRNA
Read-out: 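Luminescent ATP counts per replicate, not normalised, reflecting viable cells after 48 h dsRNA knock-down followed by 48 h of 5 µg/ml doxorubicin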
Scale: raw ATP luminescence: higher = more viable cells, protection from doxorubicin
Active means: 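z-score of 2 or more over plate mean in both duplicates, retained only when retests and separate dsRNAs confirm the protection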
The screen tested about 19,000 reagents; shown is an unselected part of those with a known target gene and a result. Over the whole deposit, 47 (0.25%) are marked active. 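Signals are raw, not normalised; exact z-scores behind calls not deposited; actives needed confirmation, so some wells reaching 2 SD are inactive.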 Reagents against one gene are numbered here. Names joined by + are all predicted targets of the reagent. Reagent sequences are not shown.

gene | reagent | SD above plate mean | raw ATP luminescence, replicate 1 | raw ATP luminescence, replicate 2 | call
Nmda1 (N-methyl-D-aspartate receptor-associated protein) | 1 | – | 63147 | 59607 | inactive
CG1208 | 1 | – | 63230 | 17897 | inactive
shot (short stop) | 1 | – | 1.02e5 | 1.02e5 | inactive
shot (short stop) | 2 | – | 95963 | 1.17e5 | inactive
shot (short stop) | 3 | – | 72563 | 57203 | inactive
Usp15-31 (Ubiquitin specific protease 15/31) | 1 | 2 to 3 SD above plate mean | 1.05e5 | 1.05e5 | inactive
Usp15-31 (Ubiquitin specific protease 15/31) | 2 | – | 32107 | 41537 | inactive
Dnaaf5 (Dynein axonemal assembly factor 5) | 1 | – | 2.31e5 | 2.06e5 | inactive
CG8958 | 1 | – | 3.59e5 | 3.38e5 | inactive
pad (poils au dos) | 1 | – | 1.14e5 | 96110 | inactive
CG13858 (retired record) | 1 | – | 47120 | 67940 | inactive
CG13858 (retired record) | 2 | – | 53440 | 68700 | inactive
CG13858 (retired record) | 3 | – | 70420 | 81140 | inactive
CG13858 (retired record) | 4 | – | 73310 | 76320 | inactive
CG42579 | 1 | – | 2.74e5 | 2.82e5 | inactive
CG31098 | 1 | – | 59980 | 49740 | inactive
nanos | 1 | – | 46700 | 50370 | inactive
Mip (Myoinhibiting peptide precursor) | 1 | – | 27093 | 24327 | inactive
Cp15 (Chorion protein 15) | 1 | – | 84793 | 84923 | inactive
fz2 (frizzled 2) | 1 | – | 61443 | 56077 | inactive
fz2 (frizzled 2) | 2 | – | 19803 | 17727 | inactive
fz2 (frizzled 2) | 3 | – | 63453 | 65423 | inactive
piwi (P-element induced wimpy testis) | 1 | – | 94157 | 55980 | inactive
eIF3k (eukaryotic translation initiation factor 3 subunit k) | 1 | – | 82580 | 84380 | inactive
Cyp308a1 (Cytochrome P450 308a1) | 1 | – | 2.36e5 | 2.64e5 | inactive
Syx1A (Syntaxin 1A) | 1 | – | 57990 | 56720 | inactive
CG9692 | 1 | – | 82113 | 70630 | inactive
CG8353 | 1 | – | 47637 | 83497 | inactive
CG18180 | 1 | – | 43567 | 34853 | inactive
Strica (Ser/Thr-rich caspase) | 1 | – | 46740 | 54353 | inactive
kis (kismet) | 1 | – | 1.11e5 | 79673 | inactive
COX6AL2 (Cytochrome c oxidase subunit 6A-like 2) | 1 | – | 66887 | 43280 | inactive
Hsc70-4 (Heat shock protein 70 cognate 4) | 1 | – | 77810 | 69000 | inactive
Taz (Tafazzin) | 1 | – | 2.96e5 | 3.25e5 | inactive
TpnC4 (Troponin C isoform 4) | 1 | – | 49460 | 58517 | inactive
CG15528 | 1 | at least 2 SD above plate mean | 73370 | 73770 | inactive
CG10904 | 1 | – | 38770 | 54743 | inactive
Obp22a (Odorant-binding protein 22a) | 1 | – | 2.97e5 | 3.03e5 | inactive
CG31406 | 1 | – | 1.02e5 | 63927 | inactive

Continued, starting with the last 11 of the part before.
gene | reagent | SD above plate mean | raw ATP luminescence, replicate 1 | raw ATP luminescence, replicate 2 | call
CG18180 | 1 | – | 43567 | 34853 | inactive
Strica (Ser/Thr-rich caspase) | 1 | – | 46740 | 54353 | inactive
kis (kismet) | 1 | – | 1.11e5 | 79673 | inactive
COX6AL2 (Cytochrome c oxidase subunit 6A-like 2) | 1 | – | 66887 | 43280 | inactive
Hsc70-4 (Heat shock protein 70 cognate 4) | 1 | – | 77810 | 69000 | inactive
Taz (Tafazzin) | 1 | – | 2.96e5 | 3.25e5 | inactive
TpnC4 (Troponin C isoform 4) | 1 | – | 49460 | 58517 | inactive
CG15528 | 1 | at least 2 SD above plate mean | 73370 | 73770 | inactive
CG10904 | 1 | – | 38770 | 54743 | inactive
Obp22a (Odorant-binding protein 22a) | 1 | – | 2.97e5 | 3.03e5 | inactive
CG31406 | 1 | – | 1.02e5 | 63927 | inactive
CG32259 | 1 | – | 1.86e5 | 1.26e5 | inactive
Tollo | 1 | – | 44963 | 36210 | inactive
CR30374 (pseudo) | 1 | – | 95077 | 1.05e5 | inactive
DIP-delta (Dpr-interacting protein delta) | 1 | – | 75780 | 85877 | inactive
DIP-delta (Dpr-interacting protein delta) | 2 | – | 79943 | 84723 | inactive
CG8420 | 1 | – | 65273 | 49230 | inactive
CG4306 | 1 | – | 45880 | 34813 | inactive
Sec24AB (Secretory 24AB) | 1 | – | 81270 | 64903 | inactive
CG6739 | 1 | – | 22747 | 23380 | inactive
CG7300 | 1 | – | 90860 | 74437 | inactive
CG14330 | 1 | – | 84200 | 74890 | inactive
skd (skuld) | 1 | – | 76943 | 75413 | inactive
Cog3 (Component of oligomeric golgi complex 3) | 1 | – | 93550 | 64023 | inactive
CG18004 | 1 | at least 3 SD above plate mean | 1.21e5 | 98300 | inactive
CG9801 | 1 | – | 65363 | 22963 | inactive
CG17167 | 1 | – | 2.43e5 | 2.52e5 | inactive
CG17167 | 2 | – | 2.83e5 | 2.15e5 | inactive
CG32440 | 1 | – | 59673 | 72920 | inactive
Aatf (Apoptosis antagonizing transcription factor) | 1 | – | 28210 | 38287 | inactive
CG12170 | 1 | at least 2 SD above plate mean | 97930 | 47003 | active
CG31075 | 1 | – | 74140 | 39320 | inactive
CCDC151 (Coiled-coil domain containing protein 151) | 1 | – | 89130 | 67843 | inactive
Tom20 (Translocase of outer membrane 20) | 1 | – | 26597 | 24427 | inactive
CG10700 | 1 | – | 54820 | 52773 | inactive
CG3517 | 1 | – | 61960 | 73640 | inactive
Pka-C3 (Protein kinase, cAMP-dependent, catalytic subunit 3) | 1 | – | 82050 | 77453 | inactive
Pka-C3 (Protein kinase, cAMP-dependent, catalytic subunit 3) | 2 | – | 49280 | 42433 | inactive
Pp4-19C (Protein phosphatase 19C) | 1 | – | 4.26e5 | 2.90e5 | inactive
Pp4-19C (Protein phosphatase 19C) | 2 | – | 2.94e5 | 3.10e5 | inactive
CG7924 | 1 | – | 19423 | 20397 | inactive
CG12576 | 1 | – | 2.53e5 | 2.72e5 | inactive
Dnai2 (dynein, axonemal, intermediate chain 2) | 1 | – | 80010 | 50990 | inactive
Qsox4 (Quiescin sulfhydryl oxidase 4) | 1 | – | 42343 | 42677 | inactive
Hsp23 (Heat shock protein 23) | 1 | – | 32910 | 35280 | inactive
Gfat1 (Glutamine:fructose-6-phosphate aminotransferase 1) | 1 | – | 3.17e5 | 3.09e5 | inactive
TwdlZ (TweedleZ) | 1 | – | 2.02e5 | 2.00e5 | inactive
Cse1 (Chromosome segregation 1) | 1 | – | 87187 | 64743 | inactive
CG11694 | 1 | – | 44820 | 47550 | inactive
E(bx) (Enhancer of bithorax) | 1 | – | 62223 | 76110 | inactive
CG10845 | 1 | – | 57960 | 65480 | inactive
Nepl9 (Neprilysin-like 9) | 1 | – | 77340 | 75740 | inactive
Keap1 | 1 | – | 35157 | 40203 | inactive
Snx17 (Sorting nexin 17) | 1 | – | 87563 | 58333 | inactive
Tdc1 (Tyrosine decarboxylase 1) | 1 | – | 91363 | 83753 | inactive
CAH2 (Carbonic anhydrase 2) | 1 | – | 68640 | 67607 | inactive
CG32023 | 1 | – | 1.94e5 | 1.85e5 | inactive
AGO1 (Argonaute-1) | 1 | – | 54260 | 49167 | inactive
Slik (Sterile20-like kinase) | 1 | – | 75270 | 55550 | inactive
CG40378 (retired record) | 1 | – | 2.22e5 | 2.69e5 | inactive
Prosalpha6T (Proteasome alpha6 subunit, Testis-specific) | 1 | – | 48167 | 72300 | inactive
CG4301 | 1 | – | 3.41e5 | 3.55e5 | inactive
CR12628 + Mgstl | 1 | – | 52210 | 56387 | inactive
CR12628 + Mgstl | 2 | – | 3.26e5 | 3.39e5 | inactive
scaf6 (SR-related CTD associated factor 6) | 1 | – | 25727 | 24663 | inactive
scaf6 (SR-related CTD associated factor 6) | 2 | – | 37450 | 32440 | inactive
scaf6 (SR-related CTD associated factor 6) | 3 | – | 55390 | 32220 | inactive
RfC4 (Replication factor C subunit 4) | 1 | – | 38870 | 42300 | inactive
CG30031 + deltaTry + CG30025 + 1 more | 1 | – | 2.52e5 | 2.75e5 | inactive
CG33144 | 1 | – | 61690 | 42170 | inactive
CG33144 | 2 | – | 34567 | 1.01e5 | inactive
CG15143 | 1 | – | 73960 | 77803 | inactive
lbm (late bloomer) | 1 | – | 45803 | 58773 | inactive
CAHbeta (Carbonic anhydrase beta) | 1 | – | 45443 | 23533 | inactive
Toll-4 | 1 | – | 47243 | 75913 | inactive
CG16787 | 1 | – | 53570 | 61690 | inactive
CG31525 | 1 | – | 58097 | 64483 | inactive
CG12934 | 1 | – | 28703 | 50737 | inactive
epsilonCOP (Coat Protein (coatomer) epsilon) | 1 | – | 1.46e5 | 1.02e5 | inactive
